Reference: US20070090330A1, “NOVEL AQUEOUS COMPOSITION AND USE OF THE SAME” (Institute for State Physics of Natural Materials, priority 1999, published 2007)

Test: Test 8: antirusting test at various concentrations, iron plate under HCl gas stream
Design: key: +: corrosion; −: no corrosion

Fe(II)2Fe(III)3Cl13 [compound 1]
−: The state of corrosion of the surface after 1 hour (2.5 × 10^−1 g/ml) | The state of corrosion of the surface after 6 days (2.5 × 10^−1 g/ml) | The state of corrosion of the surface after 1 hour (2.5 × 10^−3 g/ml) | The state of corrosion of the surface after 6 days (2.5 × 10^−3 g/ml) | The state of corrosion of the surface after 1 hour (2.5 × 10^−5 g/ml) | The state of corrosion of the surface after 6 days (2.5 × 10^−5 g/ml) | The state of corrosion of the surface after 1 hour (2.5 × 10^−7 g/ml) | The state of corrosion of the surface after 6 days (2.5 × 10^−7 g/ml)
